The results in this text go back to article PMC9291665, “Discovery and SAR analysis of 5-chloro-4-((substituted phenyl)amino)pyrimidine bearing histone deacetylase inhibitors” (Journal of Enzyme Inhibition and Medicinal Chemistry, 2022).

One assay relates to U937. As to the kind of experiment: In vitro antiproliferative assay (CCK-8), U937. The format is cell-based. The note with it: Homo sapiens, U-937, CCK-8, 72 h. On the procedure:
(§1) Compound L20 with good performances in both enzyme and K562 cell inhibitory tests were selected for further antiproliferative assay against various cell lines. K562, U266, U937, C6, Fadu, MDA-MB-231, MDA-MB-468, A549, A2780 and HepG2 cell lines were used in the cell-based anticancer evaluation of L20.
(§2) The proliferation of cancer cells was tested by CCK-8 assay. Briefly, cells were seeded in 96-well plate with about 5 × 10^3 cells in each well. The cells were treated with tested compounds after 24 h of incubation. CCK-8 reagent ([…]) was added to each well after 72 h of incubation, and cells were incubated at 37 °C for 4 h. The light absorbance at 450 nm was measured by using an Opsys microplate reader (Dynex Technologies, Chantilly, VA, USA). Results are illustrated as percent of cell viability normalised to DMSO-treated control cells.

For the next assay, the system named is A2780. As to the kind of experiment: In vitro antiproliferative assay (CCK-8), A2780. Type of assay: cell-based. The note with it: Homo sapiens, CCK-8, 72 h. On the procedure: as §1, §2
The next assay relates to U266. Put plainly: In vitro antiproliferative assay (CCK-8), U266. Type of assay: cell-based. The note with it: Homo sapiens, U-266, CCK-8, 72 h. As to the method: as §1, §2
The subject of a further assay is HepG2. As to the kind of experiment: In vitro antiproliferative assay (CCK-8), HepG2. The format is cell-based. Particulars: Homo sapiens, CCK-8, 72 h. As to the method:
as §1, §2

The subject of the next assay is A549. As to the kind of experiment: In vitro antiproliferative assay (CCK-8), A549. The note with it: Homo sapiens, CCK-8, 72 h. The format is cell-based. On the procedure:
as §1, §2

In the next assay the test system is C6. As to the kind of experiment: In vitro antiproliferative assay (CCK-8), C6. Type of assay: cell-based. Particulars: Rattus norvegicus, CCK-8, 72 h. As to the method: as §1, §2
A further assay concerns Fadu. Put plainly: In vitro antiproliferative assay (CCK-8), Fadu. Particulars: Homo sapiens, CCK-8, 72 h. The format is cell-based. As to the method: as §1, §2
The subject of assay [1] is Hela nucleus extract containing a mixture of HDAC isoforms. As to the kind of experiment: HDAC enzyme inhibitory screening against Hela nucleus extract. The format is biochemical. Particulars: at concentration of 1.0 µM, mean of three experiments. On the procedure:
The synthesised molecules were firstly screened against Hela nucleus extract containing a mixture of HDAC isoforms. […] The phenyl substitution led to decreased inhibitory activity, such as L14 and L22.
All HDAC enzymes were purchased from BPS Bioscience. In short, 60 µL of recombinant HDAC enzyme solution was mixed with various concentrations of test compound (40 µL), and then incubated at 37 °C for 30 minutes. The reaction was terminated by adding 100 µL of imaging agent containing trypsin and trichostatin A (TSA). After standing for 20 min, the fluorescence intensity was measured at the excitation and emission wavelengths of 360 and 460 nm with a microplate reader. The inhibition rate was calculated from the fluorescence intensity readings of the test wells relative to the control wells, and the IC50 curve and value were determined by GraphPad Prism 6.0 software.

The next assay concerns K562 cells. As to the kind of experiment: In vitro antiproliferative assay (CCK-8), K562. The note with it: Homo sapiens. The format is cell-based. As to the method:
as §1, §2

In the case of `O=C(CCCCCCC(=O)Nc1ccccc1)NO` [SAHA, Vorinostat, reference compound], the IC50 with U937 was found to be 1210 ± 80 nM; in the assay with A2780, 2540 ± 130 nM; in the assay on U266 it was 190 ± 10 nM; with HepG2, 3970 ± 210 nM; with A549, 4220 ± 190 nM; in the assay with C6 it was 3220 ± 130 nM. Also, the IC50 in the assay with Fadu was found to be 4120 ± 220 nM; in the assay on K562 cells (CCK-8, 72 h) it was 1960 ± 70 nM. Besides, in [1], the “HDACs percentage inhibitory rate” value was 50.12 ± 0.74%. In the assay on K562 cells (at concentration of 1.0 µM, mean of three experiments, read-out: K562 percentage inhibitory rate), the inhibition at 1 µM is 52.2 ± 0.74%.

Usually IC50 stands for the concentration that gives 50% inhibition. Low values mean higher potency, high ones lower potency.
